From PubChem BioAssay AID2685 (National Center for Advancing Translational Sciences (NCATS), 2010)
The other results are listed elsewhere or left out. Further columns of the screen follow, without active or inactive calls. The list favours compounds with an active or inconclusive main result. Potencies come from curve fits of mixed quality, noted in brackets.

Assay: qHTS Assay for Lipid Storage Modulators in Drosophila S3 Cells;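 for cell number change: cells counted by Cell Tracker Red CMTPX staining in the red channel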
Details: BODIPY lipid droplet fluorescence, 18-24 h; for cell number change: measured here: cell count max response, cells fed with added oleic acid
Outline: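 Drosophila S3 cells got compounds at several concentrations plus oleic acid (400 uM solution). Laser-scanning cytometry with 488 nm excitation read lipid droplets at 500-530 nm and cells at 575-640 nm. Percent activity was relative to 20 uM Triacsin C.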

[1] = measured here: lipid fluorescence (Fed channel) AC50, cells fed with added oleic acid
[2] = measured here: cell number channel AC50, cells fed with added oleic acid

Structure (SMILES) | cell number change [%] | AC50 [1] | AC50 [2]
COc1cc(C)c(C)cc1S(=O)(=O)n1c(C)nc2ccccc21 | 25.6 |  | 
CC1CCc2nn(CC(=O)NCCCN3CCCC3=O)cc2C1 (configuration not stated) | 22.8 | 0.291 µM [falling, partial curve, poor fit] | 
COc1cc(Cl)c(C)cc1NCC(=O)Nc1cccc(S(=O)(=O)N2CCCC2)c1 | -5.94 | 0.103 µM [rising, full curve, poor fit] | 
COc1cccc(-n2nnc3c(=O)n(Cc4ccc(C)cc4)cnc32)c1 | -20.5 | 0.164 µM [falling, full curve, poor fit] | 
CCc1sc(NC(=O)CN2CCC(C(N)=O)CC2)nc1-c1ccccc1 | 0.794 | 25.9 µM [falling, single point] | 
O=C(Nc1ccc2c(c1)OCCO2)Nc1ccc2c(c1)OCO2 | 6.89 | 2.06 µM [falling, partial curve] | 
O=C(NCCCN1CCOCC1)C(C(=O)c1ccccc1)n1ccccc1=O (configuration not stated) | -8.96 | 0.146 µM [falling, full curve, poor fit] | 
COc1ccccc1OCC(=O)NCC1CCCN(Cc2cnn(C(C)C)c2)C1 (configuration not stated) | 1.76 | 0.146 µM [rising, full curve, poor fit] | 
CCn1c(SCC(=O)Nc2ccc3c(c2)OCCO3)nnc1-c1ccccn1 | -24.8 | 0.326 µM [rising, full curve, poor fit] | 4.11 µM [rising, single point]
O=C(NCc1ccc2c(c1)OCO2)c1ccc(-n2cnnn2)cc1 | -11.5 | 1.64 µM [rising, full curve] | 
O=C(CCn1c(=S)oc2ccccc21)Nc1cc([N+](=O)[O-])ccc1F | 31.5 | 29.1 µM [rising, single point] | 14.6 µM [rising, partial curve, poor fit]
CCOC(=O)CSc1nnc(C2CCCCC2)n1C | -17.2 | 0.411 µM [falling, full curve, poor fit] | 0.00651 µM [falling, full curve, poor fit]
CN(C)N=Nc1ccc(S(=O)(=O)NC(Cc2ccccc2)C(=O)O)cc1 (configuration not stated) | 18.9 |  | 
O=C(NCCCl)Nc1ccccc1OCCOc1ccccc1NC(=O)NCCCl | -14.3 |  | 
COc1ccc(Br)cc1CNC(=O)c1ccc2c(c1)N(C)CCS2 | -31.1 |  | 32.6 µM [falling, single point]
O=C(O/N=C/C1=C(Cl)c2ccccc2CC1)c1ccc(F)cc1 | -6.96 |  | 
COc1ccc(C(=O)Nc2ccccc2C(=O)NCc2ccco2)cc1OC | -8.4 |  | 
Cc1ccc(OCc2ccc(C(=O)Nc3nc4ccccc4n3Cc3ccccc3)o2)c([N+](=O)[O-])c1 | 31.6 | 2.31 µM [rising, partial curve] | 0.411 µM [rising, full curve]
CNc1nccc(-c2ccc(Cl)cc2)c1C#N | -25.1 |  | 0.517 µM [falling, full curve, poor fit]
CCOc1ccccc1N1CCN(C(=S)NC(=O)C23CC4CC(CC(C4)C2)C3)CC1 | 5.87 | 0.146 µM [rising, full curve] | 

Structure (SMILES) | cell number change [%] | AC50 [1] | AC50 [2]
Nn1c(Cc2cccc3ccccc23)nnc1SCC(=O)NC1CCS(=O)(=O)C1 (configuration not stated) | -13.7 | 0.116 µM [falling, full curve] | 
Cc1noc(C)c1COc1ccc(C(=O)OC(C)C(=O)Nc2ccc(S(=O)(=O)N3CCOCC3)cc2)cc1 (configuration not stated) | -2.5 |  | 
COc1ccc(CCNC(=O)C(C)OC(=O)c2nsc(Cl)c2Cl)cc1OC (configuration not stated) |  | 29.1 µM [falling, single point] | 
O=C(O)CCCN1C(=O)/C(=C/c2cn(-c3ccccc3)nc2-c2cccs2)SC1=S | -28.5 | 20.6 µM [falling, single point] | 
Cc1ccsc1-c1nc(-c2ccccc2)c(-c2ccccc2)[nH]1 | -17.5 |  | 
Cc1nnc(NC(=O)CSCc2ccccc2)s1 | 38.4 |  | 0.0058 µM [rising, full curve, poor fit]
CCOC(=O)C1CCCN(c2nc3ccccc3nc2C(C#N)C(=O)NCc2ccccc2)C1 (configuration not stated) | 66.8 |  | 1.03 µM [rising, full curve]
O=C(CCn1ccc2ccccc21)NC1CCCc2ccccc21 (configuration not stated) |  | 0.58 µM [falling, single point] | 
Cc1c(Cl)cnc(NC(=O)COC(=O)C(NC(=O)c2ccco2)C(C)C)c1Cl (configuration not stated) | 251 | 5.17 µM [rising, partial curve] | 9.2 µM [rising, partial curve]
COCCCNc1nc2c(-c3cccc(C)c3)nnn2c2ccccc12 | 7 | 6.51 µM [rising, single point] | 6.51 µM [rising, single point]
O=C(CNCc1ccncc1)Nc1cc(S(=O)(=O)N2CCCCC2)ccc1Cl | 38.7 | 4.61 µM [rising, full curve, poor fit] | 7.31 µM [rising, partial curve, poor fit]
Cc1ccc(C)c(NC(=O)CN(C)S(=O)(=O)c2cccc3cccnc23)c1 |  | 29.1 µM [rising, single point] | 
Cc1c(Cl)ccc2sc(NC(=O)c3ccco3)nc12 | 10.7 | 32.6 µM [falling, single point] | 
Cc1ccc(S(=O)(=O)N(Cc2cccc(C)c2)C(=O)N2CCN(C)CC2)cc1 | -75 |  | 18.4 µM [falling, single point]
COc1cccc2cc(-c3csc(NC(=O)CCC(=O)NCCCN4CCC(C)CC4)n3)c(=O)oc12 | 8.64 |  | 
Cc1cc2nnc(SCC(=O)Nc3ccc(Cl)cc3)n2c(N)n1 | 18.3 |  | 
CCOCCCNC(=O)C1CC(=O)N(CCc2ccc(C)cc2)C1 (configuration not stated) |  | 2.31 µM [rising, partial curve] | 2.06 µM [rising, single point]
c1ccc2sc(NC3=NCN(Cc4ccc5c(c4)OCO5)CN3)nc2c1 | 3.28 |  | 
Cc1nn(-c2ccccc2)c(N2CCCC2)c1/C=C1\N=C(c2ccccc2)OC1=O | 34.8 | 23.1 µM [rising, single point] | 18.4 µM [rising, single point]
Cc1ccccc1OCC(O)Cn1c(N2CCCCC2)nc2c1c(=O)[nH]c(=O)n2C (configuration not stated) | -7.74 | 6.51 µM [rising, single point] | 

4 records drawn at random from the list so far, as already listed:
Structure (SMILES) | cell number change [%] | AC50 [1] | AC50 [2]
O=C(O)CCCN1C(=O)/C(=C/c2cn(-c3ccccc3)nc2-c2cccs2)SC1=S | -28.5 | 20.6 µM [falling, single point] | 
Cc1c(Cl)ccc2sc(NC(=O)c3ccco3)nc12 | 10.7 | 32.6 µM [falling, single point] | 
Cc1c(Cl)cnc(NC(=O)COC(=O)C(NC(=O)c2ccco2)C(C)C)c1Cl (configuration not stated) | 251 | 5.17 µM [rising, partial curve] | 9.2 µM [rising, partial curve]
Cc1noc(C)c1COc1ccc(C(=O)OC(C)C(=O)Nc2ccc(S(=O)(=O)N3CCOCC3)cc2)cc1 (configuration not stated) | -2.5 |  | 

(next part)

Structure (SMILES) | cell number change [%] | AC50 [1] | AC50 [2]
Cc1ccnc(Nc2nc(-c3ccc(O)cc3O)cs2)c1 | -71.5 | 20.6 µM [falling, single point] | 23.1 µM [falling, single point]
CCOC(=O)c1c(NC(=O)CN2CCCCC2)sc2c1CCN(C(=O)OCC)C2 | -34.6 | 29.1 µM [falling, single point] | 29.1 µM [falling, single point]
Cc1ccc(/C=N/n2c(C)nc3ccccc3c2=O)s1 |  |  | 5.8 µM [rising, single point]
O=C(CSC1=NCCS1)Nc1ccc(S(=O)(=O)NC2CCCCC2)cc1 |  | 2.91 µM [falling, partial curve, poor fit] | 
Cc1ccc(OCc2cc(C(=O)N(C)Cc3cnn(-c4ccccc4C)c3)no2)cn1 |  | 29.1 µM [falling, single point] | 
CCCn1c2ccccc2c2cnn(CC(=O)NC3CCN(Cc4ccccc4)CC3)c(=O)c21 | 22.4 | 3.26 µM [rising, single point] | 
COc1ccc([C@]23Cc4cc(C#N)ccc4C(O2)C2=C(CC4(CCCCC4)OC2=O)O3)cc1 | 18.3 | 0.596 µM [rising, single point] | 
Cc1cccc2sc(NC(=O)C3CCN(S(=O)(=O)c4cc([N+](=O)[O-])ccc4Cl)CC3)nc12 | -17.7 | 11.6 µM [falling, partial curve, poor fit] | 
O=C(CSc1ncccn1)Nc1cc(Cl)ccc1[N+](=O)[O-] | 52.2 |  | 7.31 µM [rising, partial curve]
COc1ccccc1N1CCN(C(CNS(=O)(=O)c2ccc(C)cc2)c2cccnc2)CC1 (configuration not stated) |  | 0.92 µM [rising, full curve] | 1.03 µM [rising, full curve]
COC(C(=O)Nc1cc([N+](=O)[O-])ccc1C)c1ccccc1 (configuration not stated) | 26.2 | 35.5 µM [rising, partial curve] | 
CC1CCc2c(sc(NC(=O)CSc3nnc(-c4ccccc4)o3)c2C#N)C1 (configuration not stated) | 16 | 0.116 µM [rising, full curve] | 
Cn1c(C(=O)NCCN2CCc3ccccc3C2)cc2c(=O)n(C)c3ccccc3c21 | 6.92 | 2.31 µM [rising, single point] | 
CCC(=O)Nc1nc(C)c(-c2csc(Nc3cccc(O)c3)n2)s1 |  | 29.1 µM [falling, single point] | 
COc1cccc(Nc2nc3ccccc3c(=O)[nH]2)c1 | 11.3 | 0.116 µM [rising, full curve, poor fit] | 0.82 µM [rising, full curve, poor fit]
COC(=O)CSc1nc2sc3c(c2c(=O)n1-c1ccccc1)CCN(C)C3 | -13.9 |  | 
NC(=O)C1CCN(C(=O)C2CCN(S(=O)(=O)c3ccccc3)CC2)CC1 | -15.5 | 0.291 µM [falling, full curve] | 
COc1ccccc1NC(=O)CCN1C(=O)C2C3CCC(C3)C2C1=O (configuration not stated) | -30.5 | 29.1 µM [falling, single point] | 16.4 µM [falling, single point]
COCCn1c(=N)c(S(=O)(=O)c2ccc(F)cc2)cc2c(=O)n3ccccc3nc21 | 8.06 | 16.4 µM [falling, single point] | 
